Data as given in PubChem BioAssay AID686938 (Drosophila RNAi Screening Center, 2013)
Test: 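Looking for CRAC channel components and the factors controlling them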 (primary screen). System: Drosophila S2R+ cells. Knock-down reagent: long dsRNA against Drosophila genes, about 0.25 µg dsRNA per well, roughly 10,000 cells. Time to read-out: 5 days of knock-down before the calcium assay. Challenge: thapsigargin (SERCA pump blocker) to empty calcium stores; entry signal taken 4 min after adding it. Measurement: 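Per-well fluo-4 fluorescence in two replicates, unnormalised, measured in resting cells and 4 min after store depletion by the SERCA blocker thapsigargin; ratio of the two present in few wells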. Direction: calcium entry signal: higher = stronger calcium signal after store depletion; resting calcium signal: higher = higher resting calcium signal. Rule for the call: 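Called when the plate z-score of the entry-to-rest ratio, mean of duplicates, falls below −3; wells with low overall dye signal (Fmax z below −2) or more than five off-targets excluded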. Calls: active = strongly reduced calcium entry; inactive = no strong reduction.
The screen tested about 23,000 reagents; below is an unselected part of those that have a named target and a result. Of all reagents, 75 (0.33%) were called active. 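Raw plate signals without normalisation; calls rest on plate z-scores that were not deposited; ratio present for only 364 wells.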 A plus sign joins genes that one reagent is predicted to hit. Not stated in the record: the dose of the treatment.

The opening 2 records, ahead of the listing:
calcium entry signal, replicate 1 (fluorescence units)	calcium entry signal, replicate 2 (fluorescence units)	resting calcium signal, replicate 1 (fluorescence units)	resting calcium signal, replicate 2 (fluorescence units)	activity call	Target gene	PubChem SID
4.12e7	4.49e7	6.14e7	2.12e7	inactive	CG14312 (GeneID 42195)	SID104194583
4.32e7	3.01e7	2.02e7	1.54e7	inactive	Ten-a (GeneID 32183)	SID104198716

The list itself, from the start:
calcium entry signal, replicate 1 (fluorescence units)	calcium entry signal, replicate 2 (fluorescence units)	resting calcium signal, replicate 1 (fluorescence units)	resting calcium signal, replicate 2 (fluorescence units)	activity call	Target gene	PubChem SID
4.12e7	4.49e7	6.14e7	2.12e7	inactive	CG14312 (GeneID 42195)	SID104194583
4.32e7	3.01e7	2.02e7	1.54e7	inactive	Ten-a (GeneID 32183)	SID104198716
2.84e7	3.58e7	1.70e7	2.31e7	inactive	Ten-a (GeneID 32183)	SID104199288
3.95e7	4.87e7	1.87e7	2.39e7	inactive	Ten-a (GeneID 32183)	SID104199492
3.68e7	3.94e7	1.72e7	1.90e7	inactive	Ten-a (GeneID 32183)	SID104199585
3.74e7	3.33e7	1.84e7	1.65e7	inactive	Ten-a (GeneID 32183)	SID104199656
3.42e7	3.46e7	1.68e7	1.71e7	inactive	Ten-a (GeneID 32183)	SID104199657
3.05e7	4.07e7	1.56e7	2.08e7	inactive	Ten-a (GeneID 32183)	SID104200082
2.46e7	2.44e7	1.40e7	1.19e7	inactive	Ten-a (GeneID 32183)	SID104201199
3.74e7	3.44e7	1.60e7	1.47e7	inactive	Ten-a (GeneID 32183)	SID104202373
4.97e7	6.19e7	2.21e7	2.54e7	inactive	CG4882 (GeneID 37787)	SID104184287
3.23e7	5.14e7	1.55e7	2.20e7	inactive	CG13312 (GeneID 39010)	SID104189775
1.99e7	2.60e7	1.06e7	1.22e7	inactive	fd3F + CR42499	SID104197952
2.43e7	2.53e7	1.22e7	1.17e7	inactive	fd3F + CR42499	SID104197953
5.16e7	3.00e7	2.27e7	1.59e7	inactive	Ttc30 (GeneID 34702)	SID104182610
3.57e7	4.38e7	1.58e7	1.82e7	inactive	CG6654 (GeneID 41831)	SID104195876
5.18e7	4.20e7	2.40e7	1.83e7	inactive	sPLA2 (GeneID 35665)	SID104185833
